Data as given in paper PMC4807768.
No constants are given. Whether binding was seen depends on the method and setting. Binding seen in cells or lysates may run through a third protein. Tags and fused reporters may be left off the sequences shown.

Sequences of proteins named here, by UniProt entry; tags and fusion partners are left off.
UniProt Q39057: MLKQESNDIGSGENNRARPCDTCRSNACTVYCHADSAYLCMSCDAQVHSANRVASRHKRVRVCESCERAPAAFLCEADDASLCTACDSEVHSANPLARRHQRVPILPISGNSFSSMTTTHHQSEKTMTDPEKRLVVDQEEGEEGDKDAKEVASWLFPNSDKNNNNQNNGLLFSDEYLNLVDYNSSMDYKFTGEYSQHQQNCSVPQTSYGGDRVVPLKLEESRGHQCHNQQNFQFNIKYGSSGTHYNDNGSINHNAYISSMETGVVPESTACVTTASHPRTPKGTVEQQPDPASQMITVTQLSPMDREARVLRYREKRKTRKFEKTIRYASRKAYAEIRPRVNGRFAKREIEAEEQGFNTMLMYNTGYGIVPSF

T1: GST-ZPR3 (UniProt Q9LXI8)
T1 sequence: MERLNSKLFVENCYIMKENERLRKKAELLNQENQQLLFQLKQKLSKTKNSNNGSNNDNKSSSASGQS

B1: HIS-TPL (protein, UniProt Q94AI7 1-1131)
chain: MSSLSRELVFLILQFLDEEKFKETVHKLEQESGFFFNMKYFEDEVHNGNWDEVEKYLSGFTKVDDNRYSMKIFFEIRKQKYLEALDKHDRPKAVDILVKDLKVFSTFNEELFKEITQLLTLENFRENEQLSKYGDTKSARAIMLVELKKLIEANPLFRDKLQFPTLRNSRLRTLINQSLNWQHQLCKNPRPNPDIKTLFVDHSCGPPNGARAPSPVNNPLLGGIPKAGGFPPLGAHGPFQPTASPVPTPLAGWMSSPSSVPHPAVSAGAIALGGPSIPAALKHPRTPPTNASLDYPSADSEHVSKRTRPMGISDEVNLGVNMLPMSFSGQAHGHSPAFKAPDDLPKTVARTLSQGSSPMSMDFHPIKQTLLLVGTNVGDIGLWEVGSRERLVQKTFKVWDLSKCSMPLQAALVKEPVVSVNRVIWSPDGSLFGVAYSRHIVQLYSYHGGEDMRQHLEIDAHVGGVNDISFSTPNKQLCVITCGDDKTIKVWDAATGVKRHTFEGHEAPVYSVCPHYKENIQFIFSTALDGKIKAWLYDNMGSRVDYDAPGRWCTTMAYSADGTRLFSCGTSKDGESFIVEWNESEGAVKRTYQGFHKRSLGVVQFDTTKNRYLAAGDDFSIKFWDMDAVQLLTAIDGDGGLQASPRIRFNKEGSLLAVSGNENVIKIMANSDGLRLLHTFENISSESSKPAINSIAAAAAAAATSAGHADRSANVVSIQGMNGDSRNMVDVKPVITEESNDKSKIWKLTEVSEPSQCRSLRLPENLRVAKISRLIFTNSGNAILALASNAIHLLWKWQRNERNATGKATASLPPQQWQPASGILMTNDVAETNPEEAVPCFALSKNDSYVMSASGGKISLFNMMTFKTMATFMPPPPAATFLAFHPQDNNIIAIGMDDSTIQIYNVRVDEVKSKLKGHSKRITGLAFSNVLNVLVSSGADAQLCVWNTDGWEKQRSKVLPLPQGRPNSAPSDTRVQFHQDQAHFLVVHETQLAIYETTKLECMKQWAVRESLAPITHATFSCDSQLVYASFMDATVCVFSSANLRLRCRVNPSAYLPASLSNSNVHPLVIAAHPQEPNMFAVGLSDGGVHIFEPLESEGKWGVAPPAENGSASGAPTAPSVGASASDQPQR
B2: GST-ZPR3 (protein, UniProt Q9LXI8 1-67)
chain: T1 sequence

How the values were obtained:
GST-ZPR3 = target: T1, GST-ZPR3; assay: pull-down; E. coli cell extracts of MBP-CO and HIS-TPL mixed with GST-miP1a, GST-miP1aΔPFVFL or GST-ZPR3; GST fusions held on anti-GST magnetic beads; HIS-TPL and MBP-CO detected by immunoblotting
[1] = target: MBP-CO (Arabidopsis thaliana) (UniProt Q39057); assay: pull-down; soluble protein fractions of E. coli BL21 lysates mixed; MBP-CO held on amylose-coated magnetic beads; GST fusions detected by immunoblotting

Row | binding (GST-ZPR3) | binding [1] | Molecule
1 | no binding | – | MBP-CO (from UniProt Q39057 1-373)
2 | no binding | – | B1
3 | – | no binding | B2
